PubChem BioAssay AID504791 | Drosophila RNAi Screening Center, 2011
The screen tested about 23,000 reagents; this is an unselected part of those that have a named target and a result. Over the whole deposit, 199 (0.86%) got an active call. 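Plate-scaled ratios behind the calls are not deposited; printed light signals are raw; many rows marked increased or decreased are still called inactive.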 A plus sign joins genes that one reagent is predicted to hit.

- Purpose: 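Genes whose knock-down strengthens or weakens small-RNA reporter silencing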 (primary screen)
- Cells: Drosophila S2-derived reporter cells
- Knock-down reagent: long dsRNA against Drosophila genes, about 150-250 ng dsRNA per well (siRNA assay); about 80-120 ng (miRNA assay)
- Time to read-out: about 5 days (siRNA assay); about 4 days (miRNA assay)
- Challenge: copper sulfate induction of reporters: 25 µM (siRNA assay); 200 mM stated (miRNA assay), 1-2 days before reading
- Measured: 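Dual luciferase assay: Renilla to firefly signal ratio in each well, scaled to the mean ratio of its plate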
- Direction: siRNA reporter hit score: higher = 3 marks a strong hit with raised ratio; -3 a strong hit with lowered ratio
- Units: stable assay Renilla, run 1 in luminescence; stable assay firefly, run 1 in luminescence
- Call rule: 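a well was a first-pass pick when its plate-scaled ratio rose above 1.5 (siRNA assay) or 1.6 (miRNA assay), or dropped below 0.6; a gene counted only if two separate dsRNAs agreed on retest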

predicted target	amplicon	siRNA reporter hit score	stable siRNA reporter change	miRNA reporter change	stable assay Renilla, run 1	stable assay firefly, run 1	call
Mst85C	DRSC16746				7496	5.28e5	inactive
PH4alphaEFB (prolyl-4-hydroxylase-alpha EFB)	DRSC14473				6835	4.25e5	inactive
PH4alphaEFB (prolyl-4-hydroxylase-alpha EFB)	DRSC14950				6079	4.02e5	inactive
lin (lines)	DRSC07644				6879	5.47e5	inactive
l(1)10Bb (lethal (1) 10Bb)	DRSC20346		reporter ratio raised past the hit cutoff		9950	4.90e5	active
Send1 (Spermathecal endopeptidase 1)	DRSC00482				8431	3.87e5	inactive
CG1544	DRSC15036				8043	6.05e5	inactive
CG13193	DRSC06318				5531	2.58e5	inactive
CG14402	DRSC02386				7151	3.55e5	inactive
CG32163	DRSC09442				6239	4.27e5	inactive
mew (multiple edematous wings)	DRSC18971				5280	4.25e5	inactive
mew (multiple edematous wings)	DRSC20352				5887	4.65e5	inactive
CG6356	DRSC16026				6692	3.38e5	inactive
Tim17a2	DRSC12252				7086	5.07e5	inactive
RpS28b (Ribosomal protein S28b)	DRSC18258			reporter ratio lowered past the hit cutoff	7259	4.38e5	active
Sec20 (Secretory 20)	DRSC12295				6499	3.91e5	inactive
CG12605	DRSC08286				6467	3.73e5	inactive
Ppat-Dpck	DRSC09744				7595	4.17e5	inactive
CG12531	DRSC19466				6467	4.65e5	inactive
Prosalpha1R + Prosalpha1	DRSC07515	-3			7495	3.47e5	inactive
Ntf-2 (Nuclear transport factor-2)	DRSC20552				9151	3.40e5	inactive
Lam (Lamin)	DRSC03359				6859	5.04e5	inactive
CG34408	DRSC17733				7349	4.56e5	inactive
CG34408	DRSC21926		reporter ratio raised past the hit cutoff		8822	3.71e5	inactive
CG34408	DRSC23056				5259	2.92e5	inactive
CG34408	DRSC27286			reporter ratio lowered past the hit cutoff			inactive
rdgA (retinal degeneration A)	DRSC17863				6847	3.09e5	inactive
rdgA (retinal degeneration A)	DRSC18036				5287	3.95e5	inactive
rdgA (retinal degeneration A)	DRSC18827				8263	4.32e5	inactive
Ir51a (Ionotropic receptor 51a)	DRSC06256				7815	4.41e5	inactive
Eps-15 (Epidermal growth factor receptor pathway substrate clone 15)	DRSC04288				11544	2.29e6	inactive
CG14621	DRSC20635				4907	3.31e5	inactive
Ir8a (Ionotropic receptor 8a)	DRSC17817				5423	4.17e5	inactive
Ir8a (Ionotropic receptor 8a)	DRSC17869				5251	5.37e5	inactive
Elp3 (Elongator complex protein 3)	DRSC00448				8214	3.62e5	inactive
CG5953	DRSC01546				5551	4.82e5	inactive
CG5953	DRSC02914				7626	2.78e5	inactive
CG33771	DRSC11718				4990	5.21e5	inactive
CG14191	DRSC19546				6066	4.57e5	inactive
CG30355	DRSC21958				9317	6.50e5	inactive
CG32599	DRSC19433				7823	4.41e5	inactive
ETH (Ecdysis triggering hormone)	DRSC04612				6979	3.35e5	inactive
inaF-B	DRSC18903				5792	3.87e5	inactive
CG7884	DRSC20065				6804	3.67e5	inactive
rsh (radish)	DRSC18966				6020	4.77e5	inactive
rsh (radish)	DRSC19816				4355	3.31e5	inactive
Rai1 (Rat1 Interacting Protein 1)	DRSC20157				4472	3.78e5	inactive
CG10365	DRSC14234				6626	3.41e5	inactive
SmF (Small ribonucleoprotein particle protein SmF)	DRSC07397				8570	4.51e5	inactive
Rpp25 (Ribonuclease P/MRP subunit p25)	DRSC05002				7004	4.52e5	inactive
Nrx-1 (Neurexin 1)	DRSC16184			reporter ratio lowered past the hit cutoff	7198	3.19e5	active

Hits, among the entries above:
predicted target	amplicon	siRNA reporter hit score	stable siRNA reporter change	miRNA reporter change	stable assay Renilla, run 1	stable assay firefly, run 1	call
l(1)10Bb (lethal (1) 10Bb)	DRSC20346		reporter ratio raised past the hit cutoff		9950	4.90e5	active
RpS28b (Ribosomal protein S28b)	DRSC18258			reporter ratio lowered past the hit cutoff	7259	4.38e5	active
Nrx-1 (Neurexin 1)	DRSC16184			reporter ratio lowered past the hit cutoff	7198	3.19e5	active

Additional records follow.
predicted target	amplicon	siRNA reporter hit score	stable siRNA reporter change	miRNA reporter change	stable assay Renilla, run 1	stable assay firefly, run 1	call
Rcd-1 (Required for cell differentiation 1)	DRSC19569				7151	4.00e5	inactive
Atf3 (Activating transcription factor 3)	DRSC17225				5386	2.62e5	inactive
Atf3 (Activating transcription factor 3)	DRSC22996				4356	3.03e5	inactive
Inx7 (Innexin 7)	DRSC18784				6007	2.40e5	inactive
edin (elevated during infection)	DRSC09488				6099	5.77e5	inactive
Spn42Dc (Serpin 42Dc)	DRSC05010				6970	4.55e5	inactive
Hecw (Hecw ubiquitin protein ligase)	DRSC18261				4652	3.67e5	inactive
Hecw (Hecw ubiquitin protein ligase)	DRSC18276				5451	4.29e5	inactive
CG10029	DRSC12498				7179	5.40e5	inactive
mRpL37 (mitochondrial ribosomal protein L37)	DRSC16062				6614	4.08e5	inactive
mfas (midline fasciclin)	DRSC16997				8470	3.70e5	inactive
TfIIA-L (Transcription factor IIA L)	DRSC16882				6443	3.95e5	inactive
Hrb98DE (Heterogeneous nuclear ribonucleoprotein at 98DE)	DRSC16709	-3	reporter ratio raised past the hit cutoff	reporter ratio raised past the hit cutoff	22140	3.17e5	active
BomS5 (Bomanin Short 5)	DRSC22306				9552	4.74e5	inactive
CG2898	DRSC18238				4879	4.82e5	inactive
CG32260	DRSC08084				5064	3.12e5	inactive
Rcd1 (Reduction in Cnn dots 1)	DRSC07116				12766	4.71e5	inactive
CG13084	DRSC02188				7156	4.85e5	inactive
CG2209	DRSC19843				5810	4.91e5	inactive
lncRNA:CR32658 (long non-coding RNA:CR32658)	DRSC19402				4344	3.56e5	inactive
CG8142	DRSC20086				8781	5.26e5	inactive
Got1 (Glutamate oxaloacetate transaminase 1)	DRSC07177				9115	3.95e5	inactive
CG8768	DRSC07259				7159	3.40e5	inactive
MFS3 (Major Facilitator Superfamily Transporter 3)	DRSC00664				8507	3.99e5	inactive
CG6891	DRSC20016		reporter ratio lowered past the hit cutoff		3924	3.85e5	inactive
Ance-5	DRSC04055				25890	1.08e6	inactive
CG30467	DRSC07097				6766	3.68e5	inactive
IKKbeta (I-kappaB kinase beta)	DRSC16714				8487	3.47e5	inactive
CG42507 + Trl	DRSC09325				3248	2.49e5	inactive
CG42507 + Trl	DRSC11308				5455	1.54e5	inactive
Fip1 (Factor interacting with poly(A) polymerase 1)	DRSC12147		reporter ratio raised past the hit cutoff		21050	4.31e5	inactive
CG12522	DRSC09088				5279	4.29e5	inactive
